The record followed here is PMC11785928.

Protein sequences, listed by entry. Tags and fused reporters are not part of them.
UniProt Q96PU5: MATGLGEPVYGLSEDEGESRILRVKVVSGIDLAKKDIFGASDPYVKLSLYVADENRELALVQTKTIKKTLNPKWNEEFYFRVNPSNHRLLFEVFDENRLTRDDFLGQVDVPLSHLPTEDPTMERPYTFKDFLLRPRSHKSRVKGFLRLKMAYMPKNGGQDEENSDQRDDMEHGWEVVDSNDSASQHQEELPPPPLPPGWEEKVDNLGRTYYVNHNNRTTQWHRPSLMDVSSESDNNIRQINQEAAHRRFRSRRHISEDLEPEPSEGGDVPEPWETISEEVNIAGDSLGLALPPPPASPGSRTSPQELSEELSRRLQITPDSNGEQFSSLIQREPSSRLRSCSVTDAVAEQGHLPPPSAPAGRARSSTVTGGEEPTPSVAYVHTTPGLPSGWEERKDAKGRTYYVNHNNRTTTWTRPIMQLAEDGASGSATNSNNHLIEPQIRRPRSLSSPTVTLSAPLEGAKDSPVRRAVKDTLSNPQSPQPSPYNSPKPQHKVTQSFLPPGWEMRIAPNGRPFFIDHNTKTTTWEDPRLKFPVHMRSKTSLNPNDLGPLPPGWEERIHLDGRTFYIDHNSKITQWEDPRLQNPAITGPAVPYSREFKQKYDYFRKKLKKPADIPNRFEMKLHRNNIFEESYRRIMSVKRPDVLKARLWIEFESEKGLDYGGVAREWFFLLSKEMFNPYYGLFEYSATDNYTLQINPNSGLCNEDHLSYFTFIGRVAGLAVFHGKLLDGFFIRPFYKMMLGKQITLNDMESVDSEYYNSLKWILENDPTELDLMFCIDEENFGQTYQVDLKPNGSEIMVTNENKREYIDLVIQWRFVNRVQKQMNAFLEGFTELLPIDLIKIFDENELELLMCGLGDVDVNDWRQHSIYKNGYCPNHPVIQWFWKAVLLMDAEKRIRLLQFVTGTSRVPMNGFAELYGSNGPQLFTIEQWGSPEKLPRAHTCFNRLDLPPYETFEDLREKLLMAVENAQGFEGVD

These are yes or no findings as the source states them, for the method shown. In cells and extracts the contact can be indirect. Here binding means that the protein was enriched with, or labelled near, the bait; the list need not be complete.

The target in this assay is FLAG-tagged NEDD4L (neural precursor cells expressed developmentally downregulated 4-like protein), stably expressed in HCT116 cells (UniProt Q96PU5). In words: affinity purification with mass spectrometry; interaction MS analysis in HCT116 cells stably expressing FLAG-tagged NEDD4L.

With “solute carrier family 3 member 2 (SLC3A2), endogenous in HCT116 cells (from UniProt P08195 1-529)”, the binding result is on record as “binds”.
